Drawing on paper PMC3089914, “Structural Basis of the 9-Fold Symmetry of Centrioles” (Cell, 2011), this text covers binding for 1 molecule.

No constants are given. Whether binding was seen depends on the method and setting.

This assay has as its target C. elegans SAS-6 N-terminal domain fragment with I154E (ceN[I154E]) (C. elegans) (UniProt O62479). The assay can be described thus: AUC; sedimentation velocity, 20°C, 300 μM protein; 20 mM Tris-HCl pH 7.5, 150 mM NaCl, 2 mM TCEP, 1% glycerol; both purified.

B1: C. elegans SAS-6 N-terminal domain fragment with I154E (ceN[I154E]) (domain or fragment, UniProt O62479 1-168)
chain: MTSKIALFDQTLIASLLQPLSLNQPDFKAYKTKVKLKISEQRNETSGEKELKFEISRSDDFEFLFSETLNNEKYQILARDHDLTVDFDAFPKVIIQHLLCKNIVKNLEEDGEVDARKKAGYHSIADPGKPTEINIILDAEKNFCSFELFSKTPESKGKIFSIKLHAVR
As to B1, the binding result was “no binding (tested: 300 μM)”.
